Measurements reported in PubChem BioAssay AID1347423 (Functional Genomics Laboratory (NCATS/FGL), 2020).
In all, about 52,000 sequences went through this assay and about 210 (0.4%) were called active.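 How the source made its calls: active means gene whose silencing raises cell survival under the drug, median off-target-corrected z-score across its silencing RNAs 2 or more; inactive means the rest.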 Some of the results follow.

Assay: Resistance to Poly (ADP-Ribose) Polymerase inhibitor: Gene Identification via Genome-wide siRNA Screen
Conditions: mouse BRCA2 R2336H ES cells, olaparib, CellTiter-Glo viability; hits give high values
How it was run: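 Genome-wide siRNA screen (3 siRNAs/gene, 20 nM) in mouse ES cells carrying hypomorphic BRCA2 R2336H; olaparib 500 nM added 48 h post-transfection, CellTiter-Glo viability 72 h later. Normalized to plate-median negative control; MAD z-scores, gene median, seed-adjusted.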

Sequence	z-score
GCCGUUAUCUGGACUUUACTT against Zpbp2	inactive: -0.565
GGGAAAUUUCUCUACAUCUTT against Npas1	inactive: 3.06
GGCUUCAUGAGUAGGAUUATT against Olfr943	inactive: 1.42
GCAACUUGACAUAUGACAGTT against 1700029G01Rik	inactive: 0.461
GGACCACUACAUCAUAUACTT against Lcn4	inactive: 0.276
GGACAUCCAUUCAAGGCCUTT against Rtn3	inactive: 1.05
CCCUGGGUUCUGAUCUUAATT against Cd207	inactive: -1.95
CCUUAAACCUCAGCUAAUGTT against 4932411L21Rik	inactive: -0.335
GGAAGAAGAGAAGUUACAGTT against 5133400G04Rik	inactive: -0.254
GGCAAACAUGAAUCUUACCTT against Pscd4	inactive: 0.959
GGUUGAACGAAGGGAAAAATT against 2600016B03Rik	inactive: -2.18
CGGCUCACUAGGAUUAUACTT against 4922503E23Rik	inactive: -1.63
GACUUCGGACAAAUGGUGCTT against 1110055J05Rik	inactive: 0.89
GCCUUAUAGGGAGAUCUUUTT against Tsnaxip1	inactive: -0.998
GCUAUACGUGGUUUCCUCCTT against Gpr110	inactive: -1.62
GCCAGAAAUACCUGUCGGATT against Cdc37	inactive: -1.89
GGGCAAAAUAGAAGUGAAUTT against 6330500D04Rik	inactive: -1.01
GGCCUUGAAAUCGUUUUUUTT against 3930402F23Rik	inactive: 1.03
GGUUUACACUGACUAUGUGTT against Cdkl2	inactive: 0.312
GCUAGUGCGCAUGUUUCUCTT against Rasgrp2	inactive: 0.0428
GCGUGGAUAGUUUCACAGCTT against Fbp1	inactive: 0.282
GCCUUCUUGAACUGAAAGATT against 2410030K01Rik	inactive: -1.3

Sequence	z-score
GGAGUAUCUAUGCUCAAUATT against Olfr794	inactive: -0.338
GGUCUUGUAGAAAUUUGCCTT against Slc25a21	inactive: 0.496
GGAGAAAGAAUUCAUUUCCTT against Dnchc1	inactive: 0.548
GGUGUGAGGUAAUUUCAGATT against Snx22	inactive: -0.782
CCUCUCCAACAACCAACUATT against 2900010D03Rik	inactive: -1.42
GACAGCAUGAAGGACCUCUTT against Il17c	inactive: -0.106
GGAAGGCAAAUUCAAAUACTT against Serpinc1	inactive: 0.706
GGCGCAUCGUGGACUUCUUTT against Slc36a1	inactive: -0.821
GGCGAAAUGAACACAAAGCTT against Edf1	inactive: 0.917
GGCUUUUUCCUCUACCCACTT against Trhde	inactive: 0.762
GUAGCAGAGGCUUCACUAUTT against 4733401H18Rik	inactive: -0.828
CCCAGAAUUAAACAUAGCUTT against Rrh	inactive: 1.2
GGUUGGCAAUAAGUAUUACTT against Lpin1	inactive: 0.303
GCAUUGCUAUUCAACUCCUTT against Marcks	inactive: -0.225
GUUCCUGAGUACCUAUGUCTT against Aqp7	inactive: 0.243
UGAAUCACCACCCGGAAUGTT against 2700061N24Rik	inactive: 0.597
GCACAUGUUCCUUACUUAUTT against Calcr	inactive: 0.839
GGACAUCACAGCAUAUCGUTT against Peli2	inactive: 0.6
CCCUGAACAGGUCAUCUGUTT against Ctps2	inactive: 1.06
CCAACGUGCAGAAAUGUCUTT against Metrn	inactive: 0.671
GCGUAAUGCUAGGAGAAGCTT against Celsr3	inactive: 1.06
GGAAGUCAAGAAGAAACCGTT against Zcwcc2	inactive: -0.265

Pulled one by one from the entries so far:
Sequence	z-score
CCAACGUGCAGAAAUGUCUTT against Metrn	inactive: 0.671
GGAAGUCAAGAAGAAACCGTT against Zcwcc2	inactive: -0.265
GUUCCUGAGUACCUAUGUCTT against Aqp7	inactive: 0.243

As entered above:
Under z-score, GGAAGUCAAGAAGAAACCGTT against Zcwcc2 has the entry inactive: -0.265
Under z-score, GCAUUGCUAUUCAACUCCUTT against Marcks has the entry inactive: -0.225

Following part:

Sequence	z-score
CCCGGUAUUAAAUUUAAUGTT against Aox4	inactive: 0.0496
GCAGUUAUUCUGAAAGCAATT against Olfr1386	inactive: -0.496
GGGACAAAAGCAAUCAAACTT against H2-M11	inactive: -1.11
GGAGCUCGUUGACAAGAAGTT against BC018465	inactive: -0.378
GGACCACUAUAUCUUAACUTT against Cdh23	inactive: -0.374
GCAAAUAGUUGGGUAGGAGTT against Taz	inactive: 1.29
CCCACUUCUAUUGAGUCUGTT against Ppif	inactive: -0.818
GGAGAGAAAGGAAAGACCGTT against 5033406L14Rik	inactive: 0.634
GGAAGUCACGCUGAACAAATT against 2610040C18Rik	inactive: 0.297
CCUAGCCAUGUGGUCAUAGTT against Tex264	inactive: -0.768
GGUCCUGAUGAAGUUGUAGTT against 4833420K19Rik	inactive: -0.842
GCCUACAUCAUGUAAUAUATT against Cyp2s1	inactive: -1.02
GGAAUUCUACCUGAAAAUCTT against 1110018G07Rik	inactive: 1.01
CGUAGAGCUUCUCAUAUUATT against Olfr1436	inactive: -0.774
CCAUUUGACGAAGGUAAUATT against Olfr180	inactive: 0.865
CGAAGAAGAAAUCUUUGGATT against Opn5	inactive: 0.527
GGGAGAAGUUCUGUAUAUUTT against Prdm5	inactive: 3.76
CCAUCUAUGUGAGGUAUUATT against Tapbpl	inactive: -1.02
GGCAUUUACUUACUGUUCATT against Slc39a10	inactive: -0.293
GCCUAUAACUUCAAGUAUCTT against Xab1	inactive: -0.0258
GGGAGAAGCGAGCAAUAGATT against Pla2g3	inactive: 0.55
CGUUGCAGUCUAAGCUUGUTT against Rabac1	inactive: 0.0786
